Experimental findings from PubChem BioAssay AID1347426 (Functional Genomics Laboratory (NCATS/FGL), 2020) are described below.

In all, about 31,000 sequences went through this assay and about 1,400 (4.5%) were called active.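 Rule for the calls: active = median seed-adjusted z-score above 1 or below -1; inactive = the rest.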 This is one part of the list.

This test in a line: Novel Modifiers of Survival Motor Neuron (SMN) Protein: Gene Identification via Genome-wide siRNA Screen.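 Note: luminescence tracks full-length SMN protein made from the SMN2 reporter.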 The settings on record: HEK293T SMN2-luciferase reporter, siRNA knockdown, 72 h; actives lie on both sides. The method in brief:
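HEK293T cells stably expressing an SMN2 splicing/cDNA-luciferase reporter were reverse-transfected with a druggable-genome siRNA library and read by luminescence at 72 hours; hits defined by MAD score above 1.0 or below -1.0.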
In general terms: A reporter such as luciferase makes a cellular process visible.
GCUUGAAUCUUAGUGACCATT against HOXC12: the median seed-adjusted z-score was inactive: 0.788.

Take CAGCUACUCUUGCCUAAAATT against USH1C: the median seed-adjusted z-score is inactive: -0.164.

For CUCAAGUAGUGGUGACUGATT against SORD, the median seed-adjusted z-score is inactive: 0.17.

In the case of GCAACUUAGAGGGUCAAGATT against ZNF571, the median seed-adjusted z-score is inactive: 0.175.

For the sequence UCACGACCAUGGACAUUCATT against SLC39A7, the median seed-adjusted z-score was inactive: 0.0554.

AUUCAAGUCUUCAAACUUUTT against MLLT1: the median seed-adjusted z-score is inactive: -0.086.

For CCAGUACGCUAUGGACGUATT against MDN1, the median seed-adjusted z-score is inactive: 0.187.

With GACUAUCAUUUAAGGAUGATT against ADAM21, the median seed-adjusted z-score is inactive: 0.

Turning to ACAAGGUGAUUGAGAUUAATT against PSMB8, the median seed-adjusted z-score was inactive: 0.

On to GGGAUAUUGUGGUUGAUAATT against RBX1, for which the median seed-adjusted z-score was inactive: -0.000499.

Take ACUACAUACUUUCUACAGATT against FNTB: the median seed-adjusted z-score is inactive: -0.0163.

As to AAACCUACCUGAUGAGCAATT against CHAT, the median seed-adjusted z-score is inactive: -0.109.

Take UCUCUUCAAUAUGUAUUUATT against HOXC9: the median seed-adjusted z-score was inactive: 0.395.

Consider GGUUUAUCCUGUUCAAAGATT against HNRNPAB, for which the median seed-adjusted z-score was inactive: -0.631.

In the case of UGUCAGAAGUUACCUGGGATT against QPRT, the median seed-adjusted z-score was inactive: 0.15.

Regarding AGAUCCGAAUCGAGGCCAATT against ATP5D, the median seed-adjusted z-score was inactive: 0.

AGUUCAUGGUUGUGGACAATT against RASSF5: the median seed-adjusted z-score was inactive: 0.11.

On to GUCCUACACUAUAAAUAUUTT against PCDHB14, for which the median seed-adjusted z-score was inactive: -0.229.

On to GCUCUACCCGGAAUGGAGATT against RAB6B, for which the median seed-adjusted z-score was inactive: 0.

In the case of GACCUCUCAUAUACCUUAATT against ELL2, the median seed-adjusted z-score was inactive: 0.459.

Regarding GGAGAUGCCUCAGACCAGUTT against HOXB1, the median seed-adjusted z-score is inactive: -0.0455.

As for AUAUGAACAAUGCACGGUUTT against SELO, the median seed-adjusted z-score is inactive: 0.0973.

As for CAGUCAAUGGUUAUAAGAATT against SLCO1B3, the median seed-adjusted z-score is inactive: -0.303.

Consider GCAGAAUGUAUUUCACAGATT against ATP6V0D2, for which the median seed-adjusted z-score is inactive: -0.0346.

With CCCUUUUGAGGUAGUAAAATT against SLC25A21, the median seed-adjusted z-score was inactive: -0.219.

Regarding GAUAAAAACACGCAGCUUATT against TRIM14, the median seed-adjusted z-score was inactive: -0.0636.

Regarding GAAGGAUUUUGAGCCCGAATT against LETM1, the median seed-adjusted z-score is inactive: -0.491.

As to GCUCACCGCAGAAUCCAUATT against KLF8, the median seed-adjusted z-score was inactive: 0.0976.

Regarding CAACCAGAAGUAUCCAGGATT against GALNT8, the median seed-adjusted z-score was inactive: -0.283.

Take GCUACUUAUGUGAACGUAATT against MET: the median seed-adjusted z-score was inactive: 0.55.

For CACGAAAUCAUGCAAAUCATT against RPL17, the median seed-adjusted z-score is inactive: -0.13.

On to AGAAGUUCAUGGUCGGAGATT against SULT1A1, for which the median seed-adjusted z-score is inactive: -0.26.

For GACCCGUUUAUACAACAAATT against MX2, the median seed-adjusted z-score was inactive: -0.0346.

On to AGUGGAAGUUUACAAUAAUTT against KIF25, for which the median seed-adjusted z-score is inactive: -0.0031.

In the case of GGCGAAGGUUUAACGAUAATT against ZNF337, the median seed-adjusted z-score was inactive: 0.104.

Turning to GGCCGCUUCCUUAAUCAUATT against SETDB2, the median seed-adjusted z-score is inactive: 0.417.

As for GAACUGGAAAGUUUGGACATT against HHEX, the median seed-adjusted z-score was inactive: -0.428.

In the case of GAGCACAUCCUAUAUCAAATT against KATNAL1, the median seed-adjusted z-score is inactive: -0.0327.

With CCUCUACCCUUAGUUCACATT against ZNF93, the median seed-adjusted z-score is inactive: 0.502.

Consider CUGCCGACCAGAUUGAAGATT against MYL4, for which the median seed-adjusted z-score was inactive: -0.388.

GGUUAGGCAUGACAUUGCATT against CYP2R1: the median seed-adjusted z-score is inactive: -0.981.

On to CCGGUUGUUUUACUGAAUATT against THEX1, for which the median seed-adjusted z-score was inactive: -0.423.

For GCUUUGAUGUGAUUCACCUTT against PRKAG3, the median seed-adjusted z-score is active: -1.03.

In the case of CAAUAUCCCUACCACUGAATT against SKIP, the median seed-adjusted z-score was inactive: 0.804.

For the sequence GCACCAGCAUUAGAUGUCATT against ESAM, the median seed-adjusted z-score is inactive: 0.314.

As for GAAUUCAGCAUGACCGAUATT against GABPA, the median seed-adjusted z-score was active: 1.43.

Take GGCUUGAGAGCUUACAUCATT against PPP2R5C: the median seed-adjusted z-score was active: 1.14.

Regarding GCUUUGUAGAAUUUGCAGATT against TRNAU1AP, the median seed-adjusted z-score was inactive: 0.52.

As for GCAUCGUCUUUGACAUUUUTT against SHROOM2, the median seed-adjusted z-score is inactive: 0.11.

Regarding GCUGCUCCCGGAAAUGCAATT against ISOC2, the median seed-adjusted z-score was inactive: -0.599.

On to CAACAGUGCCUUACAUUGATT against PRSS36, for which the median seed-adjusted z-score was inactive: 0.589.

Take GCAUCGAGAUGGACACGCUTT against LAMA5: the median seed-adjusted z-score was inactive: 0.229.

Consider CCAUGCCCGAAGUUAUCAATT against PNLIPRP3, for which the median seed-adjusted z-score is inactive: -0.287.

On to CCAGUGAACUGUUAUCAAATT against PLAG1, for which the median seed-adjusted z-score was inactive: 0.859.

CGGCAGCUGAUAUUUUCAATT against RAX: the median seed-adjusted z-score is inactive: -0.176.

Regarding GCCUCUCGCAGAUAACCAATT against DUSP18, the median seed-adjusted z-score was inactive: 0.13.

For GGGACUAUGUGCUAUGUCATT against SMO, the median seed-adjusted z-score is inactive: -0.457.

For CCAAUAAGGACUACGCUGATT against DSG3, the median seed-adjusted z-score is inactive: 0.

As for AAUUGACUCCGGACAGAAATT against OSR2, the median seed-adjusted z-score was inactive: 0.603.

In the case of CAGCCUGUCUCGAUAUAGATT against NOP58, the median seed-adjusted z-score was inactive: 0.101.

Regarding AGAGGAUGCUUCGAGCUGATT against SHC2, the median seed-adjusted z-score is inactive: -0.207.

Turning to GCGUAAUUUGGACCUCUUUTT against ZDHHC21, the median seed-adjusted z-score is inactive: 0.216.

With CCAUGUUACUUCUCUGAGUTT against AQP1, the median seed-adjusted z-score is inactive: 0.274.

Take ACAUCGUCCGACUACAUGATT against CAMK2A: the median seed-adjusted z-score was inactive: 0.396.

Regarding GGAUGGGUGAUGUAUGUCUTT against MALL, the median seed-adjusted z-score is inactive: -0.477.

GUCUCGUCCAAUUUCUAUATT against HOXA11: the median seed-adjusted z-score was inactive: -0.222.

As for AGACCUCGUGUAUAUAAAATT against GLIS1, the median seed-adjusted z-score is inactive: 0.838.

GCAACUUAAUUGCUUCCGATT against MTR: the median seed-adjusted z-score was inactive: -0.0696.

As to GCAAAGAGAGUUACUCUAUTT against HIST1H2BO, the median seed-adjusted z-score is inactive: 0.634.

CCACCUCAGUGCUCAAGAATT against CD81: the median seed-adjusted z-score was inactive: 0.

Consider GCUUCCUGAUUGAGAUUCATT against CAV1, for which the median seed-adjusted z-score was inactive: 0.

CAAUGCCGCCUUCAACUUUTT against TACR2: the median seed-adjusted z-score was inactive: 0.201.

For the sequence GGACAGAGGCUAUUCAACATT against PRODH, the median seed-adjusted z-score was inactive: 0.497.

Turning to GAACCAUACUAUUUGCUUUTT against ATG5, the median seed-adjusted z-score is inactive: -0.0597.

Regarding CCAUGUCCAUCGUUGCUGUTT against FPR1, the median seed-adjusted z-score is inactive: 0.0229.

AGAUUGUAGUUGUGGAUCATT against CDH15: the median seed-adjusted z-score was inactive: 0.

With CGCCCAUUCUUCAAUGUCATT against SIAH1, the median seed-adjusted z-score is active: 1.5.

As for GCAGUGUUUUUAAGUGAUATT against ZNF764, the median seed-adjusted z-score was inactive: 0.184.

On to AGAUCGCAGAGAACGUGGATT against STX1A, for which the median seed-adjusted z-score is inactive: 0.

For the sequence GGCAUAAGAUAUUACCGUUTT against ABCA13, the median seed-adjusted z-score is inactive: 0.238.

Regarding CAAAAUCGAGAAGAAGUAUTT against TAGLN, the median seed-adjusted z-score is inactive: 0.0485.

ACACUACAUCGUUUAUUUUTT against FOXD4L2: the median seed-adjusted z-score was inactive: -0.118.

As to GGAUCUUCCUUAUUACUCUTT against UBE4A, the median seed-adjusted z-score was inactive: -0.285.

On to GCAACACCACAGUUUAUCATT against GABPB2, for which the median seed-adjusted z-score was inactive: 0.441.

As for GGAAUAGACUUUCGGGAAATT against RAB27B, the median seed-adjusted z-score was inactive: 0.

Turning to CUCCUUCAUUGGUAUGGAATT against ACTC1, the median seed-adjusted z-score is inactive: 0.

For the sequence CAUCCGCAAGGCUCACAAUTT against ZBTB3, the median seed-adjusted z-score was inactive: -0.0419.

Take CCUUCUCUCUACGCGACUATT against ZBTB45: the median seed-adjusted z-score is inactive: 0.

Turning to CUCGUUAUCUUGAAAAGCATT against DHRS3, the median seed-adjusted z-score was inactive: 0.175.

As to GGCCCUGGGAAUUUACAGATT against MLN, the median seed-adjusted z-score was inactive: -0.422.

As to CAGUAUCUGUGAUACUCAUTT against CYP26A1, the median seed-adjusted z-score was inactive: 0.0569.

For CCAAAGACCCGGACAAGCATT against OTP, the median seed-adjusted z-score was inactive: 0.00717.

For AGACAGUUUGAGCACAUUUTT against ARL14, the median seed-adjusted z-score is inactive: 0.417.

In the case of GUGCUGCACUUAGCCCUGATT against AVPR1B, the median seed-adjusted z-score was inactive: -0.423.

GGAAUCUACUCUCACCAAATT against HYOU1: the median seed-adjusted z-score is inactive: 0.0557.

As to GCAGUAAGGUUGAUGCUCATT against AFM, the median seed-adjusted z-score is inactive: 0.

Turning to GCCUCUUCUUUUUGAUGUATT against MRLC2, the median seed-adjusted z-score is inactive: -0.492.

As to GUAUCUCUGUGCGCACAAATT against ZNF648, the median seed-adjusted z-score was inactive: -0.000686.

Consider GUACUGCCUUGAUAACCCATT against PANK1, for which the median seed-adjusted z-score was inactive: -0.329.

Take GGAUUUCCAAGAGCAAGGATT against PTK7: the median seed-adjusted z-score is inactive: 0.548.

Regarding CCAUGAUUGUGAACAAUCUTT against CACYBP, the median seed-adjusted z-score is inactive: -0.33.

As to GAUCUACUGUGAUGCCGUUTT against L3MBTL2, the median seed-adjusted z-score is inactive: -0.312.

GGAACAUAAUGAUAAAGCATT against DNTTIP1: the median seed-adjusted z-score was inactive: -0.33.

For CAGCCCUUCCUAAAAGUAATT against ABLIM2, the median seed-adjusted z-score was inactive: -0.26.

In the case of GGUGGUAUGGAGUCAGUGATT against SLC6A3, the median seed-adjusted z-score was inactive: 0.457.

Regarding GGUGCUACGUUAGACCAGUTT against SNRPA1, the median seed-adjusted z-score is active: -2.71.

In the case of CGGAUUAGAUGUUGCUAUATT against DUSP28, the median seed-adjusted z-score is inactive: 0.

Take GAGACAGAGUAGUCAAAUUTT against NT5E: the median seed-adjusted z-score was inactive: 0.199.
